These results are taken from PMC12493026.

By UniProt entry, the sequences of proteins in these tests, tags left out.
UniProt Q8C6M1: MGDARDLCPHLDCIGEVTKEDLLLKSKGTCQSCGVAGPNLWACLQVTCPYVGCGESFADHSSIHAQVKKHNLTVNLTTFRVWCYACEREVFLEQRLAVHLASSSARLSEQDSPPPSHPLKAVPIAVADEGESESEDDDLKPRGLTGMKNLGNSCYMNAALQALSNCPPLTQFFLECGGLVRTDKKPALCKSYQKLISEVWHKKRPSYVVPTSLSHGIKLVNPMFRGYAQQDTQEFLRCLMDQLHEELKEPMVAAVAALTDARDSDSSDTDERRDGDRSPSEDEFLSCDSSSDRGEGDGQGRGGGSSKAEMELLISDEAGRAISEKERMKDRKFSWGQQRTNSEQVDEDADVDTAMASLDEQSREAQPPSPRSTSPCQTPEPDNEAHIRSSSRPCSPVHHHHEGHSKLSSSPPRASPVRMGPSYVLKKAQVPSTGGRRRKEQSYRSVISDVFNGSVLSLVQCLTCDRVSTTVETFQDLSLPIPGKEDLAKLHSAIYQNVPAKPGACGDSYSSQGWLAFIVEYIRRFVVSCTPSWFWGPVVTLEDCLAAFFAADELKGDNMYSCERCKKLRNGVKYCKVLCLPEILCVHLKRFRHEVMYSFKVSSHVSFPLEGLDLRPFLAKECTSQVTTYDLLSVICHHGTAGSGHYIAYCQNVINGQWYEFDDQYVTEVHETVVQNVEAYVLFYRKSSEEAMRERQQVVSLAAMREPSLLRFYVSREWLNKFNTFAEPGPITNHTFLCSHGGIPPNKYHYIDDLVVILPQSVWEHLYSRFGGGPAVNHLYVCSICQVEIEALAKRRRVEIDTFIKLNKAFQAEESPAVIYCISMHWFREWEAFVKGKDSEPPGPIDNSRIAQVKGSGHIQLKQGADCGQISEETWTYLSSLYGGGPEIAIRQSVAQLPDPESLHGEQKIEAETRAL
UniProt Q8R4B8: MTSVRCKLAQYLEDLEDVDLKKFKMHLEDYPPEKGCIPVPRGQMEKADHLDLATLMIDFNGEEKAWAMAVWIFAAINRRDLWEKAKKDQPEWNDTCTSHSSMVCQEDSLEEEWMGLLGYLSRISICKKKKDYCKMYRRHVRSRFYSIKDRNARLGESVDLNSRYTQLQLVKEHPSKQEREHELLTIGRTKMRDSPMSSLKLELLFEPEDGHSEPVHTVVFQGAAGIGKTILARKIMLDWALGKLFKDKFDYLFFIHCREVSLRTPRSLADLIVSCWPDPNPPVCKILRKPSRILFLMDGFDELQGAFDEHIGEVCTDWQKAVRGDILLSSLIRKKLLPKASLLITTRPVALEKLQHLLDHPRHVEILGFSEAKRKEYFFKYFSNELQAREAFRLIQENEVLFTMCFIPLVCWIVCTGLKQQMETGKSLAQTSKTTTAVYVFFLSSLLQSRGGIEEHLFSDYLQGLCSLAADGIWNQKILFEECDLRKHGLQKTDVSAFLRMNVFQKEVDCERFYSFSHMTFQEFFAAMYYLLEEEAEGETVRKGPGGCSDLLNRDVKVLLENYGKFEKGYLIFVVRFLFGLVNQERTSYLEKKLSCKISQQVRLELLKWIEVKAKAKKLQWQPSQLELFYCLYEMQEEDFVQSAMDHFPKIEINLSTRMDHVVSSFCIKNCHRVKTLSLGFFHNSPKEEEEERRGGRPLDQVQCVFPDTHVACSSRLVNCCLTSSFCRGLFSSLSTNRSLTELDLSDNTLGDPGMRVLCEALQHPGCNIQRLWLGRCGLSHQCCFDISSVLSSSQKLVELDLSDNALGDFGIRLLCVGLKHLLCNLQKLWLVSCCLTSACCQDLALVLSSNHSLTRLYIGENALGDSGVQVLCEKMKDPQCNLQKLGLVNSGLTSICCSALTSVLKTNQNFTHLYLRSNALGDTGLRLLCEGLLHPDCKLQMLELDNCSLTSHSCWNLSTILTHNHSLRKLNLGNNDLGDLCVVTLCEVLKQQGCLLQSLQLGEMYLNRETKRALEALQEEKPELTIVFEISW

Results are given in words; binding and its absence hold for the method and conditions named. In cells and extracts the contact can be indirect. Some binding calls cover weakened binding; strength is not graded here.

The target in assay [1] is Flag-USP20 (ubiquitin-specific peptidase 20) (UniProt Q8C6M1). In words: co-IP; NIH/3T3 cells co-transfected with Flag-USP20 (WT or mutated) and His-NLRP3; USP20 immunoprecipitated by anti-Flag antibody.
Assay [2] has as its target USP20, endogenous in mouse heart tissue (mouse (endogenous in heart tissue)) (UniProt Q8C6M1). The assay can be described thus: co-IP; heart tissue of mice induced by LPS, RIPA lysate; endogenous USP20 immunoprecipitated by anti-USP20, protein G-Sepharose.

His-NLRP3 (from UniProt Q8R4B8 1-1033): the binding result in assay [1] is given as “binds”. As to “NLRP3, endogenous in mouse heart tissue (from UniProt Q8R4B8 1-1033)”, the binding entry in assay [2] is “binds”.
